Results deposited as PubChem BioAssay AID652243 (Drosophila RNAi Screening Center, 2013).
Test: 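Fly genes required for human androgen receptor driven transcription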 (primary screen). System: Drosophila S2R+ cells. Knock-down reagent: long dsRNA against Drosophila genes. Timing: 72 h (48 h, then 24 h hormone). Treatment: synthetic androgen R1881 at 10 nM for 24 h. Detection: 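Firefly light from an androgen-responsive reporter and Renilla control light per well, raw and unnormalised, for each of two replicates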. Direction: firefly reporter light: higher = more light from androgen-responsive reporter; Renilla control light: higher = more constitutive control signal (cell number, transfection). Rule for the call: 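Across duplicate plates, a knock-down whose log firefly/Renilla ratio shifted a set fold down or up from the GFP/LacZ control mean was a hit; the downward cut appears as both 1.5 and 3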. Meaning of the calls: active = hit: reporter lowered or raised; inactive = no hit.
In all, the deposit lists about 24,000 reagents; below is a random part of those that have a named target and a result. Over the whole deposit, 246 (1%) were called active. 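Plates not normalised; calls are printed but the firefly/Renilla ratio behind them is not deposited; fold cut for lowering reported inconsistently.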 Raw values are not corrected between plates. Reagents against one gene are numbered here. Names joined by + are all predicted targets of the reagent. Not stated in the record: the amount of reagent.

Gene	reagent	firefly reporter light, replicate 1	firefly reporter light, replicate 2	Renilla control light, replicate 1	Renilla control light, replicate 2	Outcome
CG18666	1	3.07e5	2.55e5	1.78e6	2.20e6	inactive
sbm	1	4.37e5	4.35e5	2.56e6	2.25e6	inactive
mRpL21	1	2.80e5	1.92e5	2.98e6	1.46e6	inactive
eloF	1	84087	99369	1.70e6	2.12e6	inactive
eloF	2	8.90e5	1.16e6	8.03e5	8.02e5	inactive
CG18266	1	3.22e5	6.24e5	9.78e5	1.17e6	inactive
CG13392	1	1.69e5	1.83e5	1.21e6	1.32e6	inactive
Trf4-2	1	94639	1.21e5	2.74e6	2.31e6	inactive
Trf4-2	2	3.00e5	4.05e5	8.26e5	8.99e5	inactive
Cog8	1	1.01e6	9.52e5	1.15e6	1.32e6	inactive
CG32811	1	7.64e5	8.43e5	1.53e6	1.86e6	inactive
tomb + Cap-D3	1	9.26e5	7.94e5	4.11e6	1.67e6	inactive
CG15130	1	1.73e5	1.64e5	1.32e6	1.20e6	inactive
CG13465	1	2.36e5	1.91e5	1.67e6	2.11e6	inactive
grim	1	9.60e5	6.86e5	1.71e6	1.32e6	inactive
Act79B	1	3.38e5	2.28e5	2.58e6	2.07e6	inactive
Act79B	2	8.61e5	8.54e5	1.49e6	1.26e6	inactive
nudE	1	1.80e5	1.85e5	6.20e5	6.79e5	inactive
nudE	2	1.68e5	84832	2.02e6	1.20e6	inactive
nudE	3	8.16e5	8.01e5	1.42e6	1.15e6	inactive
MED15	1	68199	1.44e5	7.69e5	5.31e5	inactive
MED15	2	3.86e5	5.31e5	7.26e5	7.27e5	inactive
CG13113	1	1.46e5	1.50e5	1.31e6	1.32e6	inactive
CG34045	1	7.49e5	6.50e5	2.07e6	2.06e6	inactive
